Data published in US20160168253A1.
These are yes or no findings as the source states them, for the method shown. Some binding calls cover weakened binding; strength is not graded here.

Chains of the proteins cited; added tags and fusions are not shown. Residues count along the entry.
UniProt P05067, residues 672-713: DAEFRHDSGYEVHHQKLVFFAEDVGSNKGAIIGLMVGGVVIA

Target: native human β-amyloid plaques from brain sections of an Alzheimer's Disease patient (human) (UniProt P05067)
Assay: indirect immunofluorescence on Alzheimer's disease brain sections

B1: Mab 31 = Gantenerumab (INN) (antibody, human IgG1, V domains shown)
VH: QVELVESGGGLVQPGGSLRLSCAASGFTFSSYAMSWVRQAPGKGLEWVSAINASGTRTYYADSVKGRFTISRDNSKNTLYLQMNSLRAEDTAVYYCARGKGNTHKPYGYVRYFDVWGQGTLVTVSS
VL: DIVLTQSPATLSLSPGERATLSCRASQSVSSSYLAWYQQKPGQAPRLLIYGASSRATGVPARFSGSGSGTDFTLTISSLEPEDFATYYCLQIYNMPITFGQGTKVEIKR
- binding: binds
